Assay results as given in the supplement of paper PMC4604168 (melanoma cell lines).
The other results are listed elsewhere or left out. Single values are uncertain, as repeats are few or missing.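 Cells were imaged in 1,536-well plates, and nuclei stained with an antibody against cleaved PARP were counted against all DNA-stained nuclei to give the apoptosis fraction. Screening doses were chosen to leave most cells alive, and resting and induced cleaved-PARP levels differ strongly between cell lines.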

How the values were obtained:
Assay in all cases: cleaved PARP positive nuclei fraction relative to DMSO control; melanoma cells; higher = more apoptosis
Details in all cases: library dose: low library concentration; 72 h
501Mel = tested on: 501Mel
A101D = tested on: A101D
A2058 = tested on: A2058
A375 = tested on: A375
C32 = tested on: C32
CBRC013 = tested on: CBRC013 (line from a melanoma biopsy)
CBRC014 = tested on: CBRC014 (line from a melanoma biopsy)
CBRC016 = tested on: CBRC016 (line from a melanoma biopsy)
CBRC017 = tested on: CBRC017 (line from a melanoma biopsy)
CBRC034 = tested on: CBRC034 (line from a melanoma biopsy)
COLO792 = tested on: COLO792
COLO800 = tested on: COLO800
COLO829 = tested on: COLO829
G361 = tested on: G361
IPC-298 = tested on: IPC-298
IST-MEL1 = tested on: IST-MEL1
LB2518-MEL = tested on: LB2518-MEL
LOXIMVI = tested on: LOXIMVI

Structure (SMILES) | cleaved PARP positive nuclei fraction (501Mel) | cleaved PARP positive nuclei fraction (A101D) | cleaved PARP positive nuclei fraction (A2058) | cleaved PARP positive nuclei fraction (A375) | cleaved PARP positive nuclei fraction (C32) | cleaved PARP positive nuclei fraction (CBRC013) | cleaved PARP positive nuclei fraction (CBRC014) | cleaved PARP positive nuclei fraction (CBRC016) | cleaved PARP positive nuclei fraction (CBRC017) | cleaved PARP positive nuclei fraction (CBRC034) | cleaved PARP positive nuclei fraction (COLO792) | cleaved PARP positive nuclei fraction (COLO800) | cleaved PARP positive nuclei fraction (COLO829) | cleaved PARP positive nuclei fraction (G361) | cleaved PARP positive nuclei fraction (IPC-298) | cleaved PARP positive nuclei fraction (IST-MEL1) | cleaved PARP positive nuclei fraction (LB2518-MEL) | cleaved PARP positive nuclei fraction (LOXIMVI)
NC(=O)Nc1cc(-c2cccc(F)c2)sc1C(=O)N[C@H]1CCCNC1 + Oc1cc(-c2nc(-c3ccccc3)[nH]c2-c2ccncc2)ccc1Cl [L779450] (first compound 0.02 µM, partner dose 0.2 µM) | 262% | 50.2% | 29.1% | 188% | 63.7% | 115% | 135% | 142% | 96.6% | 95.3% | 186% | 140% | 101% | 71.4% | 253% | 315% | 146% | 36.8%
Cc1nc(Nc2ncc(C(=O)Nc3c(C)cccc3Cl)s2)cc(N2CCN(CCO)CC2)n1 [dasatanib] + Oc1cc(-c2nc(-c3ccccc3)[nH]c2-c2ccncc2)ccc1Cl [L779450] (first compound 0.004 µM, partner dose 0.2 µM) | 106% | 75% | 161% | 382% | 105% | 491% | 118% | 106% | 186% | 106% | 73.8% | 132% | 39.2% | 110% | 98.5% | 158% | 115% | 48.4%
C[C@]1(c2nc3c(C(N)=O)cccc3[nH]2)CCCN1 [Veliparib] + COc1ccc(COc2ccc(Cc3cnc(N)nc3N)cc2OC)cc1 [GW2580] (first compound 1.4 µM, partner dose 1 µM) | 69% | 37.6% | 74.6% | 28.6% | 208% | 57.8% | 116% | 65.5% | 81.3% | 45.6% | 133% | 114% | 107% | 172% | 187% | 37.9% | 221% | 17.6%
C=CCn1c(=O)c2cnc(Nc3ccc(N4CCN(C)CC4)cc3)nc2n1-c1cccc(C(C)(C)O)n1 + COc1ccc2c(c1)CCC1C2CCC2(C)C(NCCCCCCN3C(=O)C=CC3=O)CCC12 [U73122] (first compound 0.02 µM, partner dose 0.4 µM) | 141% | 220% | 253% | 979% | 252% | 172% | 115% | 92.5% | 51.2% | 104% | 148% | 308% | 110% | 104% | 67.8% | 531% | 201% | 113%
O=C(Nc1cccc(Cl)c1)Nc1ncc(CCNc2ncnc3ccsc23)s1 + O=S(=O)(c1ccccc1)N(CC(F)(F)F)c1ccc(C(O)(C(F)(F)F)C(F)(F)F)cc1 [T0901317] (first compound 0.0008 µM, partner dose 1.4 µM) | 83.9% | 77.6% | 125% | 104% | 112% | 185% | 99% | 74.6% | 98.3% | 61.8% | 35.8% | 188% | 102% | 55.4% | 133% | 179% | 82% | 110%
Cn1cncc1[C@@](N)(c1ccc(Cl)cc1)c1ccc2c(c1)c(-c1cccc(Cl)c1)cc(=O)n2C [tipifarnib] + Cc1cc([N+](=O)[O-])ccc1NS(=O)(=O)c1cc(Cl)ccc1Cl [FH535] (first compound 0.01 µM, partner dose 1 µM) | 102% | 118% | 81.7% | 130% | 150% | 301% | 152% | 1640% | 374% | 442% | 74.1% | 118% | 116% | 121% | 95.4% | 128% | 102% | 39.4%
C#Cc1cccc(Nc2ncnc3cc(OCCOC)c(OCCOC)cc23)c1 [erlotinib] + COc1ccc2c(c1)CCC1C2CCC2(C)C(NCCCCCCN3C(=O)C=CC3=O)CCC12 [U73122] (first compound 0.8 µM, partner dose 0.4 µM) | 39.9% | 45.8% | 75% | 94.8% | 44.9% | 78.7% | 92.6% | 73.9% | 100% | 135% | 108% | 78.4% | 94.3% | 65.3% | 207% | 36.9% | 236% | 72.7%
Cn1cncc1[C@@](N)(c1ccc(Cl)cc1)c1ccc2c(c1)c(-c1cccc(Cl)c1)cc(=O)n2C [tipifarnib] + COc1ccc(-c2ccc3c(N4CCOCC4)nc(N4C[C@@H](C)O[C@@H](C)C4)nc3n2)cc1CO [KU0063794] (first compound 0.01 µM, partner dose 0.02 µM) | 95.8% | 258% | 150% | 106% | 107% | 295% | 104% | 37.5% | 89.8% | 93.8% | 120% | 229% | 125% | 101% | 129% | 431% | 95% | 32.8%
COCC[n+]1c2c(n(Cc3cnccn3)c1C)C(=O)c1ccccc1C2=O + O=C(Nc1ccccc1)c1cc([N+](=O)[O-])ccc1Cl [GW9662] (first compound 0.0004 µM, partner dose 2 µM) | 51.7% | 51.2% | 129% | 105% | 57% | 566% | 91.2% | 103% | 83.3% | 107% | 68.2% | 141% | 117% | 86.9% | 82.9% | 102% | 85% | 54.9%
